Structures were worked out from names or drawings and are uncertain.

Sequences of proteins named here, by UniProt entry; tags and fusion partners are left off. Residues count along the entry.
UniProt O15297, whole entry: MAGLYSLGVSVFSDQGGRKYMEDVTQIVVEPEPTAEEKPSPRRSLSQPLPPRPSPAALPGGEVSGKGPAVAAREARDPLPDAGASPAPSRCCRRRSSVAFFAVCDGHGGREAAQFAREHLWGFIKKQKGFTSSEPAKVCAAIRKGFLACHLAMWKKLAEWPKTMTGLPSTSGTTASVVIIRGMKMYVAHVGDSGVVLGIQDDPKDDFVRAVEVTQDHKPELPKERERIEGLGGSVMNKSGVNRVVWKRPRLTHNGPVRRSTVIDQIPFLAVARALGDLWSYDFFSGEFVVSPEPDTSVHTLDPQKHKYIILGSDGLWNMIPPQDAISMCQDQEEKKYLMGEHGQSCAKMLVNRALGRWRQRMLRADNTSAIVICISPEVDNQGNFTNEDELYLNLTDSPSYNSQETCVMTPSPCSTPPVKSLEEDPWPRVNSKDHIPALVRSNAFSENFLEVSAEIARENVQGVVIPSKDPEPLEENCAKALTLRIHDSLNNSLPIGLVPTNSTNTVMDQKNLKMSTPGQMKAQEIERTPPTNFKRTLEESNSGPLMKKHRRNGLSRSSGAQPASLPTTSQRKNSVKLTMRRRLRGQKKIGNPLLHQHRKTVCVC
UniProt O15297, 2-420 limits assumed: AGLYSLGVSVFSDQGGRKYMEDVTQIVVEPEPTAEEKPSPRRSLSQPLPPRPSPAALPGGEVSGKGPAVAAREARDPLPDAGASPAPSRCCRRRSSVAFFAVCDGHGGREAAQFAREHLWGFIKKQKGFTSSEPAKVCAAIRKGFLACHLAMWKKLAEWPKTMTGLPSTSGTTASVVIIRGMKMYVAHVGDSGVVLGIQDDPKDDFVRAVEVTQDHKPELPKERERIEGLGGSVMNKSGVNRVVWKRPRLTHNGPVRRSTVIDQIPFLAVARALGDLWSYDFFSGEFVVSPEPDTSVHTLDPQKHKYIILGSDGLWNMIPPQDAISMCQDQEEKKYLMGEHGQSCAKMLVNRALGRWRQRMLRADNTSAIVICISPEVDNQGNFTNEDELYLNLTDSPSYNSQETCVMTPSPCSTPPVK

The target of assay [1] is recombinant His-tag Wip1(2-420) protein (amino acids #2-420) (Homo sapiens (Human), UniProt O15297). Briefly: Wip1(2-420) phosphatase enzyme FDP assay. As to conditions: read-out: WIP1 (Truncated 2-420) FDP Assay: IC50; fluorescein diphosphate (FDP) substrate, RT 2 hours, fluorescence Ex485/Em535. How it is done:
(§1) The Human Wip1 (2-420, aa 2-420) or Wip1 full length (aa 1-605) DNA sequence was codon optimized and synthesized by Genscript for insect cell expression. The open reading frame of Wip1(2-420) with a N-terminal-His6 affinity tag followed by a TEV cleavage site was subcloned sites into the pFastBac1 expression vector. The recombinant bacmid DNA was transfected in Sf9 insect cells for baculovirus production. After 72 hours infection, the Sf9 cells were harvested by centrifugation and resuspended in lysis buffer containing 50 mM Tris/HCl, pH 8.0, 500 mM NaCl, 20% glycerol, Benzonase 0.5% CHAPS and Roche cOmplete™ EDTA free protease inhibitors. Cells were disrupted with microfluidizer and the debris was removed by centrifugation at 185,000 g for 1 hour. The supernatant was subjected to HisTrap FF for affinity purification. […]
(§2) Test compounds (252 mM stock in DMSO) were diluted 3 folds in series in DMSO and 1.2 μl per well were added into 384-well polypropylene black plates (Nunc). […] The plate was centrifuged at 1,200 rpm (Eppendorf 5810R Plate centrifuge) for 1 minute and fluorescence intensity (Ex485/Em535) was measured on Perkin Elmer Victor Reader. EC50 values were calculated using either Prism (GraphPad) or ActivityBase software (IDBS), The IC50 results are provided in Table M.

In assay [2] the target is recombinant His-tag Wip1 full length protein (amino acids #1-605) (Homo sapiens (Human), UniProt O15297). Briefly: Wip1 full length phosphatase enzyme FDP assay. As to conditions: read-out: WIP1 (Full-Length) FDP Assay: IC50; fluorescein diphosphate (FDP) substrate, RT 2 hours, fluorescence Ex485/Em535. As for the experimental part:
as §1, §2

For `CC[C@H](Nc1cc(Cl)cnc1C)c1ccc(C(=O)N[C@@H](CC2CCCC2)C(=O)N[C@@H]2CC2(F)F)s1` [Compound 47, (2S)-2-({5-[(1S)-1-[(5-chloro-2-methylpyridin-3-yl)amino]propyl]thiophen-2-yl}formamido)-3-cyclopentyl-N-[(1R)-2,2-difluorocyclopropyl]propanamide], the IC50 was determined as 6 nM in assay [1] and 8 nM in assay [2].

A word on the IC50: it is the midpoint of a concentration-inhibition curve.

Source of the values: patent US20240116910A1, “Heterocycles as WIP1 Inhibitors” (PMV Pharmaceuticals, Inc., priority 2022, published 2024).
